Experimental data reported in PMC12238680.

By UniProt entry, the sequences of proteins in these tests, tags left out.
UniProt Q16630: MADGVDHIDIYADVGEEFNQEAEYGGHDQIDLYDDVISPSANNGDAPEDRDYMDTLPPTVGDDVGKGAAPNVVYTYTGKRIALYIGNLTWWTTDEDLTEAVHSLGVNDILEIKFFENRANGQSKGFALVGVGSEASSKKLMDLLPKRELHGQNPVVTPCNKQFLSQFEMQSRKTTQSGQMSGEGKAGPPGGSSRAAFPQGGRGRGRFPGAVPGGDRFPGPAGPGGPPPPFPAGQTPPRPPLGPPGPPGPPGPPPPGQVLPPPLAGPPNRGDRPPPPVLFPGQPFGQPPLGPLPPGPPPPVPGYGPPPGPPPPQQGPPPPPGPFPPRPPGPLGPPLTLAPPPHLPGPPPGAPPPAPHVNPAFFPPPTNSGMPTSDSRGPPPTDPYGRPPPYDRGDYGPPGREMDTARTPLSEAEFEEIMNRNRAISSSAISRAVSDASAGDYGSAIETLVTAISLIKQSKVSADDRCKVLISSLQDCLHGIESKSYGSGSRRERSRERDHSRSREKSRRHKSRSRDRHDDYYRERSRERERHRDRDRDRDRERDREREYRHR
UniProt O00425: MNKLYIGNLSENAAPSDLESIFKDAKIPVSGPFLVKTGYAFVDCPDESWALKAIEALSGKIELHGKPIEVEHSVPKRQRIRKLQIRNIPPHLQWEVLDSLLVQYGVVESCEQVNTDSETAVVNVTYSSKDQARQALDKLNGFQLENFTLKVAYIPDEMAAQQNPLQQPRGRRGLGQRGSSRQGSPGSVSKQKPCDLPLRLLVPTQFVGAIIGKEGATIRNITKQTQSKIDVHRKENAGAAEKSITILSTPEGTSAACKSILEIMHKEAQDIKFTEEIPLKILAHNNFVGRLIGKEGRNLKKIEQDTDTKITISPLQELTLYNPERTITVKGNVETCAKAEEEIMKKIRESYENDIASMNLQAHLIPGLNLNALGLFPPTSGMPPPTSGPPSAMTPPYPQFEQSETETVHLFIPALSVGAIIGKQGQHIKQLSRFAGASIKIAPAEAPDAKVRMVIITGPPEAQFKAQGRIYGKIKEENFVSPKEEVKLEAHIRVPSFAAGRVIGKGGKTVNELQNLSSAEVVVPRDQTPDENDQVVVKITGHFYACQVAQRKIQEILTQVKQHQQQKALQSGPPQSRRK
UniProt Q9Y6M1: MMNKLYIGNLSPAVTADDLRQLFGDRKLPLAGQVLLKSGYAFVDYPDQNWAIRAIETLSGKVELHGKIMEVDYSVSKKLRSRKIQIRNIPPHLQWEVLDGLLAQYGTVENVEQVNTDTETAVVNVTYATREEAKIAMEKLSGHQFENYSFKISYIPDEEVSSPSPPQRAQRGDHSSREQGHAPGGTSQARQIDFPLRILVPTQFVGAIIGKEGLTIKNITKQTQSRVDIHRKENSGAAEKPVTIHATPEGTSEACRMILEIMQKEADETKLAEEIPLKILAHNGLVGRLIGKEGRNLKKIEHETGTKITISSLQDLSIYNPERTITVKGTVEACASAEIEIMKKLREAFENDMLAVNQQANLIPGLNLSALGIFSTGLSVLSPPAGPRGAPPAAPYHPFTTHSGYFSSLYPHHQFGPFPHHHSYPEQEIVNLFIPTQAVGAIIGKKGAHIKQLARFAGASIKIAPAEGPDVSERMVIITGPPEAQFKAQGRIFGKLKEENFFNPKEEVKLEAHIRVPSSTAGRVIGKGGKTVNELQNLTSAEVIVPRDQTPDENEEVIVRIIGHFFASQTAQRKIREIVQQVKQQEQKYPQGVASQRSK
UniProt O75494: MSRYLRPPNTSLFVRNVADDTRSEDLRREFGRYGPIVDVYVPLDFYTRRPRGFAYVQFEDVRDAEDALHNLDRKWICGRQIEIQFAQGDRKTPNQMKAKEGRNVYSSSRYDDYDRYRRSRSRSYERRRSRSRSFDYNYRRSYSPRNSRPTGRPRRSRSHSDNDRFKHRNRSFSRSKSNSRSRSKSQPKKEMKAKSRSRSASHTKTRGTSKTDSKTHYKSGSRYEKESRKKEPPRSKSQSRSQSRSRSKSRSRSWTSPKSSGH

Molecular target: CPSF6 (human (endogenous in HeLa, A2780, OVCAR3, SKOV3)) (UniProt Q16630)
Experiment: affinity purification with mass spectrometry; IP of endogenous CPSF6 (rabbit polyclonal antibody) from OVCAR3 lysate with or without RNase A (200 ng/mL); proteins common to both

IGF2BP3 (from UniProt O00425 1-579)
binding: binds

IGF2BP2 (from UniProt Q9Y6M1 1-599)
binding: binds

SRSF10 (from UniProt O75494 1-262)
binding: binds

B1: CPSF7 (protein, UniProt Q8N684 1-471)
chain: MSEGVDLIDIYADEEFNQDPEFNNTDQIDLYDDVLTATSQPSDDRSSSTEPPPPVRQEPSPKPNNKTPAILYTYSGLRNRRAAVYVGSFSWWTTDQQLIQVIRSIGVYDVVELKFAENRANGQSKGYAEVVVASENSVHKLLELLPGKVLNGEKVDVRPATRQNLSQFEAQARKRECVRVPRGGIPPRAHSRDSSDSADGRATPSENLVPSSARVDKPPSVLPYFNRPPSALPLMGLPPPPIPPPPPLSSSFGVPPPPPGIHYQHLMPPPPRLPPHLAVPPPGAIPPALHLNPAFFPPPNATVGPPPDTYMKASAPYNHHGSRDSGPPPSTVSEAEFEDIMKRNRAISSSAISKAVSGASAGDYSDAIETLLTAIAVIKQSRVANDERCRVLISSLKDCLHGIEAKSYSVGASGSSSRKRHRSRERSPSRSRESSRRHRDLLHNEDRHDDYFQERNREHERHRDRERDRHH
binding: binds

B2: TRA2B (protein, UniProt P62995 1-288)
chain: MSDSGEQNYGERESRSASRSGSAHGSGKSARHTPARSRSKEDSRRSRSKSRSRSESRSRSRRSSRRHYTRSRSRSRSHRRSRSRSYSRDYRRRHSHSHSPMSTRRRHVGNRANPDPNCCLGVFGLSLYTTERDLREVFSKYGPIADVSIVYDQQSRRSRGFAFVYFENVDDAKEAKERANGMELDGRRIRVDFSITKRPHTPTPGIYMGRPTYGSSRRRDYYDRGYDRGYDDRDYYSRSYRGGGGGGGGWRAAQDRDQIYRRRSPSPYYSRGGYRSRSRSRSYSPRRY
binding: binds

These are yes or no findings as the source states them, for the method shown. In cells and extracts the contact can be indirect. A yes stands for co-enrichment or nearness to the bait. Other partners may have been found.
